Measured data: PubChem BioAssay AID1159594 (NIAID, 2016)

Aim: 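Which core toll-like receptor signalling genes are needed for TNF promoter activation by Pam2CSK4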
System: human THP-1 B5 reporter cells, PMA-differentiated into macrophage-like cells
Reagent: single siRNA against human genes
Time to read-out: 48 to 72 hours after siRNA transfection; ligand exposure 4 hours
Treatment: Pam2CSK4 (TLR2/6 agonist) stimulation for 4 hours before lysis; dose not given
Detection: 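Robust z-score, relative to negative controls, of the firefly/renilla ratio from a TNF promoter reporter, after per-plate median/MAD scaling, mean of replicate screens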
Direction: TNF reporter z-score: higher = stronger TNF promoter reporter activity
Active means: 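Active when the mean z-score across replicates is at or beyond ±1.5 in either direction, matching a depositor grade of 50 or higher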
Meaning of the calls: active = z-score beyond ±1.5 (either direction); inactive = z-score within ±1.5
Shown is a random part of 756 reagents tested. In the full data, 130 (17%) were called active. 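Active calls cover both falls and rises of reporter activity; each row reflects one siRNA, not a gene-level verdict.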 Reagents against one gene are numbered here. No sequences are given here. Not stated in the record: the amount of reagent.

{"gene": "TBKBP1", "reagent no.": 1, "TNF reporter z-score, replicate mean": 1.26, "activity call": "inactive"}
{"gene": "TBKBP1", "reagent no.": 2, "TNF reporter z-score, replicate mean": -1.8, "activity call": "active"}
{"gene": "TBKBP1", "reagent no.": 3, "TNF reporter z-score, replicate mean": -0.272, "activity call": "inactive"}
{"gene": "TBKBP1", "reagent no.": 4, "TNF reporter z-score, replicate mean": 0.436, "activity call": "inactive"}
{"gene": "TBKBP1", "reagent no.": 5, "TNF reporter z-score, replicate mean": -0.969, "activity call": "inactive"}
{"gene": "TBKBP1", "reagent no.": 6, "TNF reporter z-score, replicate mean": -0.528, "activity call": "inactive"}
{"gene": "AKT3", "reagent no.": 1, "TNF reporter z-score, replicate mean": 0.432, "activity call": "inactive"}
{"gene": "AKT3", "reagent no.": 2, "TNF reporter z-score, replicate mean": -0.139, "activity call": "inactive"}
{"gene": "AKT3", "reagent no.": 3, "TNF reporter z-score, replicate mean": -0.263, "activity call": "inactive"}
{"gene": "AKT3", "reagent no.": 4, "TNF reporter z-score, replicate mean": -1.74, "activity call": "active"}
{"gene": "AKT3", "reagent no.": 5, "TNF reporter z-score, replicate mean": -0.628, "activity call": "inactive"}
{"gene": "AKT3", "reagent no.": 6, "TNF reporter z-score, replicate mean": -0.0999, "activity call": "inactive"}
{"gene": "RAC1", "reagent no.": 1, "TNF reporter z-score, replicate mean": 0.11, "activity call": "inactive"}
{"gene": "RAC1", "reagent no.": 2, "TNF reporter z-score, replicate mean": -0.359, "activity call": "inactive"}
{"gene": "RAC1", "reagent no.": 3, "TNF reporter z-score, replicate mean": 0.154, "activity call": "inactive"}
{"gene": "RAC1", "reagent no.": 4, "TNF reporter z-score, replicate mean": -0.282, "activity call": "inactive"}
{"gene": "RAC1", "reagent no.": 5, "TNF reporter z-score, replicate mean": 0.123, "activity call": "inactive"}
{"gene": "RAC1", "reagent no.": 6, "TNF reporter z-score, replicate mean": -1.74, "activity call": "active"}
{"gene": "IRF3", "reagent no.": 1, "TNF reporter z-score, replicate mean": -0.935, "activity call": "inactive"}
{"gene": "IRF3", "reagent no.": 2, "TNF reporter z-score, replicate mean": -0.0513, "activity call": "inactive"}
{"gene": "IRF3", "reagent no.": 3, "TNF reporter z-score, replicate mean": -1.03, "activity call": "inactive"}
{"gene": "IRF3", "reagent no.": 4, "TNF reporter z-score, replicate mean": -1.71, "activity call": "active"}
{"gene": "IRF3", "reagent no.": 5, "TNF reporter z-score, replicate mean": -0.662, "activity call": "inactive"}
{"gene": "IRF3", "reagent no.": 6, "TNF reporter z-score, replicate mean": -0.51, "activity call": "inactive"}
{"gene": "PIK3CB", "reagent no.": 1, "TNF reporter z-score, replicate mean": -1.53, "activity call": "active"}
{"gene": "PIK3CB", "reagent no.": 2, "TNF reporter z-score, replicate mean": -0.769, "activity call": "inactive"}
{"gene": "PIK3CB", "reagent no.": 3, "TNF reporter z-score, replicate mean": -0.566, "activity call": "inactive"}
{"gene": "PIK3CB", "reagent no.": 4, "TNF reporter z-score, replicate mean": -0.0881, "activity call": "inactive"}
{"gene": "PIK3CB", "reagent no.": 5, "TNF reporter z-score, replicate mean": 0.571, "activity call": "inactive"}
{"gene": "PIK3CB", "reagent no.": 6, "TNF reporter z-score, replicate mean": -0.462, "activity call": "inactive"}
{"gene": "OTUD5", "reagent no.": 1, "TNF reporter z-score, replicate mean": -1.46, "activity call": "inactive"}
{"gene": "OTUD5", "reagent no.": 2, "TNF reporter z-score, replicate mean": -1.93, "activity call": "active"}
{"gene": "OTUD5", "reagent no.": 3, "TNF reporter z-score, replicate mean": -0.878, "activity call": "inactive"}
{"gene": "OTUD5", "reagent no.": 4, "TNF reporter z-score, replicate mean": -2.03, "activity call": "active"}
{"gene": "OTUD5", "reagent no.": 5, "TNF reporter z-score, replicate mean": -1.9, "activity call": "active"}
{"gene": "OTUD5", "reagent no.": 6, "TNF reporter z-score, replicate mean": -1.8, "activity call": "active"}
{"gene": "IRF9", "reagent no.": 1, "TNF reporter z-score, replicate mean": -0.596, "activity call": "inactive"}
{"gene": "IRF9", "reagent no.": 2, "TNF reporter z-score, replicate mean": -0.24, "activity call": "inactive"}
{"gene": "IRF9", "reagent no.": 3, "TNF reporter z-score, replicate mean": -0.705, "activity call": "inactive"}
{"gene": "IRF9", "reagent no.": 4, "TNF reporter z-score, replicate mean": -2.23, "activity call": "active"}
{"gene": "IRF9", "reagent no.": 5, "TNF reporter z-score, replicate mean": -0.643, "activity call": "inactive"}
{"gene": "IRF9", "reagent no.": 6, "TNF reporter z-score, replicate mean": -0.822, "activity call": "inactive"}
{"gene": "IFNAR2", "reagent no.": 1, "TNF reporter z-score, replicate mean": -0.0627, "activity call": "inactive"}
{"gene": "IFNAR2", "reagent no.": 2, "TNF reporter z-score, replicate mean": -1.05, "activity call": "inactive"}
{"gene": "IFNAR2", "reagent no.": 3, "TNF reporter z-score, replicate mean": -2.66, "activity call": "active"}
{"gene": "IFNAR2", "reagent no.": 4, "TNF reporter z-score, replicate mean": -0.338, "activity call": "inactive"}
{"gene": "IFNAR2", "reagent no.": 5, "TNF reporter z-score, replicate mean": 0.717, "activity call": "inactive"}
{"gene": "IFNAR2", "reagent no.": 6, "TNF reporter z-score, replicate mean": -0.751, "activity call": "inactive"}
{"gene": "MAPK1", "reagent no.": 1, "TNF reporter z-score, replicate mean": -0.0715, "activity call": "inactive"}
{"gene": "MAPK1", "reagent no.": 2, "TNF reporter z-score, replicate mean": -1.32, "activity call": "inactive"}
{"gene": "MAPK1", "reagent no.": 3, "TNF reporter z-score, replicate mean": -0.839, "activity call": "inactive"}
{"gene": "MAPK1", "reagent no.": 4, "TNF reporter z-score, replicate mean": -0.192, "activity call": "inactive"}
{"gene": "MAPK1", "reagent no.": 5, "TNF reporter z-score, replicate mean": -1.07, "activity call": "inactive"}
{"gene": "MAPK1", "reagent no.": 6, "TNF reporter z-score, replicate mean": -0.34, "activity call": "inactive"}
{"gene": "RELB", "reagent no.": 1, "TNF reporter z-score, replicate mean": 0.277, "activity call": "inactive"}
{"gene": "RELB", "reagent no.": 2, "TNF reporter z-score, replicate mean": -0.166, "activity call": "inactive"}
{"gene": "RELB", "reagent no.": 3, "TNF reporter z-score, replicate mean": 0.429, "activity call": "inactive"}
{"gene": "RELB", "reagent no.": 4, "TNF reporter z-score, replicate mean": 0.137, "activity call": "inactive"}
{"gene": "RELB", "reagent no.": 5, "TNF reporter z-score, replicate mean": 0.0958, "activity call": "inactive"}
{"gene": "RELB", "reagent no.": 6, "TNF reporter z-score, replicate mean": 0.711, "activity call": "inactive"}
